Results deposited as PubChem BioAssay AID1259308 (NCATS, 2017).
Purpose: 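Candidate targets for better recombinant protein yield in mammalian cells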 (primary screen). Cell system: human HEK293 embryonic kidney cells stably expressing firefly luciferase (HEK-CMV-Luc2-Hygro). Reagent: single siRNA against human genes, 0.8 pmol siRNA per well. Duration: 72 h. Measured: 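Reporter luminescence and viable-cell signal on separate replicate plates, given as percent of non-targeting control and median/MAD z-scores, plus per-cell luciferase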. Direction: total luciferase, z-score and total luciferase, % of control: higher = more reporter protein produced; luciferase per cell, z-score: higher = more reporter output per viable cell; viable cells, % of control: higher = more viable cells. Hit rule: 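Active when the median/MAD z-score for overall luciferase is greater than 3; a gene was taken forward for validation with new siRNAs if at least two of its three siRNAs passed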. Meaning of the calls: active = raised luciferase; inactive = no rise.
This is a random part of about 59,000 deposited reagents. About 1,510 of them (2.6%) were called active. 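Calls use total luciferase alone and ignore viability, so some active siRNAs may act by altering cell number.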 The numbers tell different reagents against one gene apart.

The first 3 records as a preview:
no.	gene symbol	reagent no.	total luciferase, z-score	total luciferase, % of control	luciferase per cell, z-score	viable cells, % of control	Outcome
1	ZBED10P	1	2.21	126	2.14	80.1	inactive
2	ZBED10P	2	0.114	84.1	0.872	74.7	inactive
3	ZBED10P	3	0.216	86.2	-0.0516	97.6	inactive

The list itself, from the start:
no.	gene symbol	reagent no.	total luciferase, z-score	total luciferase, % of control	luciferase per cell, z-score	viable cells, % of control	Outcome
1	ZBED10P	1	2.21	126	2.14	80.1	inactive
2	ZBED10P	2	0.114	84.1	0.872	74.7	inactive
3	ZBED10P	3	0.216	86.2	-0.0516	97.6	inactive
4	KCNJ10	1	4.43	170	2.25	105	active
5	KCNJ10	2	6.78	217	4.04	83.5	active
6	KCNJ10	3	0.0514	82.9	-0.227	98.4	inactive
7	FOXE3	1	-1.11	59.8	-1.48	98.8	inactive
8	FOXE3	2	-0.966	62.7	-1.41	101	inactive
9	FOXE3	3	0.435	90.5	0.0418	100	inactive
10	LRRC74B	1	-1.31	55.9	-0.946	80.2	inactive
11	LRRC74B	2	-0.225	77.4	-0.63	102	inactive
12	LRRC74B	3	0.603	93.9	0.328	96.2	inactive
13	TIMM10B	1	0.38	89.4	1.57	66.1	inactive
14	TIMM10B	2	-1.12	59.7	-1.03	87.5	inactive
15	TIMM10B	3	-0.58	70.4	0.159	75.4	inactive
16	CDK14	1	-2.01	41.8	-0.665	55.7	inactive
17	CDK14	2	1.53	112	1.59	82.6	inactive
18	CDK14	3	-0.382	74.3	-0.878	105	inactive
19	PRY	1	0.411	90.1	0.0682	98.9	inactive
20	PRY	2	0.523	92.3	0.699	85.8	inactive
21	PRY	3	3.25	147	2.12	93.6	active
22	FBXO2	1	0.279	87.4	-0.49	111	inactive
23	FBXO2	2	0.85	98.8	0.655	92.9	inactive
24	FBXO2	3	0.296	87.8	-0.634	116	inactive
25	PRM1	1	-0.063	80.6	0.0993	87.8	inactive
26	PRM1	2	0.047	82.8	0.411	83.1	inactive
27	PRM1	3	-1.01	61.9	-1.01	90.2	inactive
28	MRPL42	1	1.35	109	1.17	89.5	inactive
29	MRPL42	2	-0.155	78.8	-0.717	106	inactive
30	MRPL42	3	-0.629	69.4	-0.893	98.1	inactive
31	TRIM43	1	0.403	89.9	-0.148	104	inactive
32	TRIM43	2	-1.2	58.1	-0.0376	65.5	inactive
33	TRIM43	3	0.735	96.5	0.68	90.2	inactive
34	RIN3	1	1.06	103	1.87	70.2	inactive
35	RIN3	2	-0.54	71.1	-0.824	98.7	inactive
36	RIN3	3	1.86	119	1.25	95.7	inactive
37	WDR83OS	1	1.54	112	1.95	75.2	inactive
38	WDR83OS	2	-0.91	63.8	-0.964	91.9	inactive
39	WDR83OS	3	0.0179	82.2	-0.264	98.5	inactive
40	AK8	1	-0.223	77.5	0.78	70.5	inactive
41	AK8	2	0.476	91.3	1.22	74	inactive
42	AK8	3	1.71	116	2.05	75.5	inactive
43	VSTM2A	1	1.57	113	1.9	76.6	inactive
44	VSTM2A	2	1.58	113	0.822	102	inactive
45	VSTM2A	3	-1.18	58.3	-0.132	67.5	inactive
46	CEP112	1	-0.517	71.6	-0.31	86.8	inactive
47	CEP112	2	-2.13	39.5	-2.26	80.1	inactive
48	CEP112	3	-1.89	44.2	-2.12	86.5	inactive
49	OR2AG2	1	-1.73	47.4	-1.91	87.6	inactive
50	OR2AG2	2	0.768	97.2	0.438	96.8	inactive
51	OR2AG2	3	-0.386	74.2	-0.688	99.4	inactive
52	SPSB1	1	4.74	176	3.76	73.2	active
53	SPSB1	2	-1.37	54.6	-1.03	79.9	inactive
54	SPSB1	3	0.616	94.1	0.908	82.8	inactive
55	CHRNG	1	-1.21	57.9	-1.32	91.7	inactive
56	CHRNG	2	0.148	84.8	0.13	91.6	inactive
57	CHRNG	3	-0.0264	81.4	-0.161	94.9	inactive
58	VKORC1	1	-1.02	61.6	-0.583	80.3	inactive
59	VKORC1	2	1.35	109	1.2	88.7	inactive
60	VKORC1	3	-0.189	78.1	-0.388	96.7	inactive
61	SHQ1	1	1.68	115	0.89	102	inactive
62	SHQ1	2	0.67	95.2	0.586	91.2	inactive
63	SHQ1	3	2.03	122	2.25	75.5	inactive
64	SNRPA	1	-0.14	79.1	-0.649	105	inactive
65	SNRPA	2	1.44	111	1.2	90	inactive
66	SNRPA	3	0.722	96.3	0.0276	107	inactive
67	ALPG	1	0.776	97.3	1.2	79.3	inactive
68	ALPG	2	-0.122	79.5	0.0903	86.7	inactive
69	ALPG	3	-1.19	58.2	-1.46	95.4	inactive
70	ZNF799	1	-0.311	75.7	0.407	76	inactive
71	ZNF799	2	-0.827	65.4	-0.3	79.1	inactive
72	ZNF799	3	-0.832	65.3	0.246	68.4	inactive
73	SNX29P1	1	0.625	94.3	0.92	82.7	inactive
74	SNX29P1	2	0.471	91.3	0.55	88.2	inactive
75	SNX29P1	3	-1.19	58.2	-0.563	75.4	inactive
